Results deposited as PubChem BioAssay AID504784 (Drosophila RNAi Screening Center, 2011)
The screen tested about 17,000 reagents; this is an unselected part of those that have a named target and a result. 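Each column is one replicate's B-score; the combined score over replicates was not deposited, so single values may mislead.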 Reagents against one gene are numbered here. Further read-outs or replicates are left out here.

Screen: 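Search for regulators of lipid droplet storage in oleate-fed fly cells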 (primary screen)
Cell system: Drosophila Kc167 embryonic cells
Knock-down reagent: long dsRNA against Drosophila genes, about 250 ng dsRNA per well
Duration: 4 days
Treatment: cells fed 400 µM oleic acid bound to BSA
Measurement: 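Microscope images give a droplet-to-nucleus area ratio, taken as log and converted to a screen-wide B-score; higher values mean greater lipid storage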
Reading the numbers: droplet/nuclear area B-score: higher = more stored lipid (overstorage)

Knock-down of thoc7 resulted in: droplet/nuclear area B-score, replicate 1 = 0.735. After knock-down of CG14262, the record shows droplet/nuclear area B-score, replicate 1 = 0.125. CG31211 #1 gave droplet/nuclear area B-score, replicate 1 = -0.078. Silencing of CG31211 #2 resulted in: droplet/nuclear area B-score, replicate 1 = -0.637. After knock-down of CG31211 #3, the record shows droplet/nuclear area B-score, replicate 1 = -0.917. For OstDelta (Oligosaccharide transferase Delta subunit) the deposit lists droplet/nuclear area B-score, replicate 1 = -2.41.

Depletion of CG45067 came out at: droplet/nuclear area B-score, replicate 1 = -1.04. Against CG6724, the entry reads droplet/nuclear area B-score, replicate 1 = -0.0832. mRpL50 (mitochondrial ribosomal protein L50) showed droplet/nuclear area B-score, replicate 1 = 2.71. For sowi (solwind) the deposit lists droplet/nuclear area B-score, replicate 1 = 0.412. After knock-down of CG30075, the screen gave droplet/nuclear area B-score, replicate 1 = -0.464. Against Sfxn1-3 (Sideroflexin 1/3), the entry reads droplet/nuclear area B-score, replicate 1 = 2.47.

Against CG32243, the values are droplet/nuclear area B-score, replicate 1 = -0.449. Silencing of CG30467 resulted in: droplet/nuclear area B-score, replicate 1 = -1.3. After knock-down of mld (molting defective) #1, the record shows droplet/nuclear area B-score, replicate 1 = -0.728. With knock-down of mld (molting defective) #2, the screen gave droplet/nuclear area B-score, replicate 1 = 0.0244. Knock-down of mld (molting defective) #3 came out at: droplet/nuclear area B-score, replicate 1 = 0.496. For CG13801, the entry reads droplet/nuclear area B-score, replicate 1 = -0.698.

CG4956 gave droplet/nuclear area B-score, replicate 1 = -1.13.

A run of entries from the list above, as a working copy:
sowi (solwind) → droplet/nuclear area B-score, replicate 1 = 0.412
CG30075 → droplet/nuclear area B-score, replicate 1 = -0.464
Sfxn1-3 (Sideroflexin 1/3) → droplet/nuclear area B-score, replicate 1 = 2.47

Next results follow.
Depletion of Pgk (Phosphoglycerate kinase) #1 resulted in: droplet/nuclear area B-score, replicate 1 = 1.23. Depletion of Pgk (Phosphoglycerate kinase) #2 gave: droplet/nuclear area B-score, replicate 1 = 1. Against TTLL1A (Tubulin tyrosine ligase-like 1A), the values are droplet/nuclear area B-score, replicate 1 = 0.148. ChLD3 (Chitin and LDLR binding deacetylase 3) gave droplet/nuclear area B-score, replicate 1 = -0.138. Silencing of CG4596 gave: droplet/nuclear area B-score, replicate 1 = -0.645. With knock-down of CG6937 the results were droplet/nuclear area B-score, replicate 1 = 0.885.

For Cpr76Ba (Cuticular protein 76Ba), the entry reads droplet/nuclear area B-score, replicate 1 = 1.19. Knock-down of CG42685 resulted in: droplet/nuclear area B-score, replicate 1 = -0.954. Silencing of CG31191 #1 resulted in: droplet/nuclear area B-score, replicate 1 = 0.218. With knock-down of CG31191 #2 the results were droplet/nuclear area B-score, replicate 1 = 1.54. CG16812 showed droplet/nuclear area B-score, replicate 1 = 1.48. With knock-down of CG10914 the results were droplet/nuclear area B-score, replicate 1 = 1.29.

With knock-down of Art7 (Arginine methyltransferase 7) the results were droplet/nuclear area B-score, replicate 1 = -0.806. Rab26 #1 scored droplet/nuclear area B-score, replicate 1 = 0.626. With knock-down of Rab26 #2 the results were droplet/nuclear area B-score, replicate 1 = 0.112. Rab26 #3 gave droplet/nuclear area B-score, replicate 1 = -2. For tank, the values are droplet/nuclear area B-score, replicate 1 = -0.0286. Knock-down of CG5478 came out at: droplet/nuclear area B-score, replicate 1 = -0.537.

nonA-l (nonA-like) scored droplet/nuclear area B-score, replicate 1 = 0.11. Sgs3 (Salivary gland secretion 3) showed droplet/nuclear area B-score, replicate 1 = -0.74. CG32625 scored droplet/nuclear area B-score, replicate 1 = 1.62.
